# Out of some 390,000 compounds screened, about 760 (0.19%) were called active. Inconclusive results, whose numbers are uncertain, are shown with a selection of clear calls. Calls follow the shape of the dose curve; as a rule, active = well fitted inhibition curve with a large enough effect; inconclusive = small, poorly fitted or top-dose-only effect; inactive = flat fitted curve, though single readings scatter. Where the call is inconclusive, the potency comes from a doubtful curve fit.
# Assay: qHTS for Inhibitors of Vif-A3F Interactions: qHTS; also: nearly all actives have a fitted effect of over 65% in size
# Conditions: HeLa A3F-eYFP + Vif (tagged APOBEC3F with the HIV-1 protein that degrades it), YFP fluorescence increase; series mostly up to 46.1 µM
# Summary of the method: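 HeLa cells stably expressing A3F-eYFP plus Vif, plated and incubated overnight at 37 deg C, then exposed to compounds overnight at 37 deg C. Blocked degradation read as raised yellow fluorescence (Ex 488/Em 500-530).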
# Potency is read from the fitted curve at half-maximal effect.
row,SMILES,Potency
1,Cc1ccc(N=Nc2c(O)[nH]c3ccc(F)cc23)cc1,"inconclusive: 17.8 µM [inhibitor, partial curve, poor fit]"
2,Cn1c(SCCC#N)nnc1-c1ccccc1F,"inconclusive: 6.31 µM [inhibitor, single point]"
3,COc1ccc(-c2cc(C)no2)cc1S(=O)(=O)Nc1ccccc1,"inconclusive: 3.55 µM [inhibitor, single point]"
4,CC(=O)C1=C(c2ccccc2)N(C(C)=O)n2c(nnc2C2CCCCC2)S1,inactive
5,Cc1cc(C)c(C(=O)N(CCN(C)C)CC2CCCN(Cc3ccccc3F)C2)o1 (stereo not drawn),"inconclusive: 12.6 µM [inhibitor, partial curve]"
6,COc1ccc(-c2cc(C(F)(F)F)nc(N3CCN(C)CC3)n2)cc1,inactive
7,C/C(=N\NC(=O)c1ccc(NS(=O)(=O)c2cccs2)cc1)c1ccc(Cl)cc1,inactive
8,COc1ccc(C(=O)COC(=O)CCNS(=O)(=O)c2ccccc2)cc1Br,"inconclusive: 11.2 µM [inhibitor, partial curve, poor fit]"
9,Cc1ccc(C(=O)N/C(=C\c2ccc(-c3cc(Cl)ccc3Cl)o2)C(=O)NCc2cccnc2)cc1,inactive
10,CC1(C(=O)NNC(=O)c2ccc(=O)oc2)CC1Br (stereo not drawn),"inconclusive: 17.8 µM [inhibitor, single point]"
11,Clc1nssc1=Nc1ccccc1,"inconclusive: 28.2 µM [inhibitor, single point]"
12,CC1CN(S(=O)(=O)c2cccc(C(F)(F)F)c2)CC(C)O1 (stereo not drawn),"inconclusive: 15.8 µM [inhibitor, single point]"
13,FC(F)(F)c1cccc(NC(=S)Nc2cccc(NC(=S)Nc3cccc(C(F)(F)F)c3)n2)c1,"inconclusive: 5.62 µM [inhibitor, single point]"
14,CCN1/C(=C/c2ccc3cc(C)ccc3[n+]2CC)Sc2ccc3sccc3c21,"inconclusive: 3.16 µM [inhibitor, full curve, poor fit]"
15,COc1ccc(C(CC(=O)c2ccc3c(c2)OCO3)C(=O)O)cc1OC (stereo not drawn),inactive
16,CSCC(C)N1CCC(n2nccc2NC(=O)CCCc2ccccc2)CC1 (stereo not drawn),"inconclusive: 35.5 µM [inhibitor, single point]"
17,CCN=C1S/C(=C\c2cc(Br)c(O)c(OC)c2)C(=O)N1CC,"inconclusive: 22.4 µM [inhibitor, single point]"
18,CCN(CC)S(=O)(=O)c1ccc(N/N=C(\C)c2ccncc2)nc1,"inconclusive: 28.2 µM [inhibitor, single point]"
19,O=c1[nH]ncc2c3ccccc3n(Cc3cccc(Cl)c3)c12,active: 25.1 µM
20,COc1ccc2cc3c(N)nn(C(=O)c4ccccc4Cl)c3nc2c1,inactive
21,Cc1ccc2nc3sc(C(=O)N4CCCc5ccccc54)c(N)c3cc2c1,"inconclusive: 10 µM [inhibitor, partial curve, poor fit]"
22,COc1ccc2[nH]c(=O)c(C(c3nnnn3C(C)(C)C)N(Cc3ccco3)CC3CCCO3)cc2c1 (stereo not drawn),inactive

# Some values from above.
# Entry of COc1ccc(C(CC(=O)c2ccc3c(c2)OCO3)C(=O)O)cc1OC (stereo not drawn) under Potency: inactive
# Entry of CC1CN(S(=O)(=O)c2cccc(C(F)(F)F)c2)CC(C)O1 (stereo not drawn) under Potency: inconclusive: 15.8 µM [inhibitor, single point]

# Following part.

row,SMILES,Potency
1,Cc1ccc(C)c(NC(=O)Cn2cc(S(=O)(=O)Cc3cccc(Cl)c3)c3ccccc32)c1,"inconclusive: 7.94 µM [inhibitor, partial curve]"
2,CN1C(=O)/C(=C\c2ccccc2OCc2ccccc2)SC1=S,"inconclusive: 22.4 µM [inhibitor, single point]"
3,CNC(=S)N/N=C(\C)c1cccc(C(F)(F)F)c1,"inconclusive: 15.8 µM [inhibitor, partial curve, poor fit]"
4,O=C(c1ccccc1)c1c2c(cc3sc4ccccc4[n+]13)-c1cccc3cccc-2c13,"inconclusive: 3.16 µM [inhibitor, partial curve, poor fit]"
5,COc1cccc(N(C(=O)c2cnccn2)C(C(=O)NC2CCCCC2)c2ccc(Cl)cc2)c1 (stereo not drawn),inactive
6,Cc1cc(-c2cc(-c3ccccc3)on2)nc(NC2CCCC2)n1,"inconclusive: 35.5 µM [inhibitor, single point]"
7,CSc1nc(-c2ccc(C)cc2)[nH]c1S(=O)(=O)c1ccccc1,inactive
8,C=CCSc1n[nH]c(-c2ccc(OCCCC)cc2)n1,"inconclusive: 15.8 µM [inhibitor, partial curve, poor fit]"
9,CC(=O)Nc1nc(-c2ccc(Cl)cc2)nc(C)c1C(C)=O,inactive
10,C=C1C(=O)O[C@H]2[C@H]1[C@@H](O)CC(=C)[C@@H]1CC(=O)[C@@H](C)[C@H]21,"inconclusive: 6.31 µM [inhibitor, single point]"
11,O=C(Nc1ccc(OC(F)(F)F)cc1)Nc1cccc([N+](=O)[O-])c1,inactive
12,COc1ccc(-c2cc(-c3ccccc3)c(C#N)c(SCC(=O)O)n2)cc1,inactive
13,Cc1ccc(Nc2nc(Cl)c(C=O)s2)cc1Cl,active: 22.4 µM
14,Cc1cccc(C)c1NC(=O)CNC(=O)c1ccc(NS(=O)(=O)c2ccc3[nH]c(=O)[nH]c3c2)cc1,"inconclusive: 35.5 µM [inhibitor, single point]"
15,Fc1cccc(NC(=S)NCc2ccccc2Cl)c1,"inconclusive: 35.5 µM [inhibitor, single point]"
16,COc1cccc(NC(=O)C2CCCN(S(=O)(=O)c3cccc4nonc34)C2)c1 (stereo not drawn),"inconclusive: 22.4 µM [inhibitor, single point]"
17,C#CCOCCOCCOCCNc1nc(N2CCN(C(=O)[C@H](CC(N)=O)n3cc(C(N)[C@H](C)CC)nn3)CC2)nc(N2CCN(C(=O)[C@H](CC(N)=O)n3cc(C(N)[C@@H](C)CC)nn3)CC2)n1 (stereo partly drawn),inactive
18,O=C(N/N=C\c1ccccn1)C1c2ccccc2Oc2ccccc21,"inconclusive: 14.1 µM [inhibitor, single point]"
19,Cc1cccc(NC(=S)NCc2ccco2)n1,"inconclusive: 35.5 µM [inhibitor, partial curve, poor fit]"
20,Cc1ccc(C(=O)NCCCNc2ccc(C(F)(F)F)cc2[N+](=O)[O-])cc1,"inconclusive: 35.5 µM [inhibitor, single point]"
21,CN(C)c1ccc(N=Nc2ccc(S(N)(=O)=O)cc2)cc1,"inconclusive: 22.4 µM [inhibitor, partial curve, poor fit]"

# Source: PubChem BioAssay AID602313 (National Center for Advancing Translational Sciences (NCATS), 2012)
